Patent US8735620B2, “Processes for preparing (E)-styrylbenzylsulfone compounds and uses thereof for treating proliferative disorders” (priority 2008, dated 2014)
At least one compound was matched to its structure with a doubt left.

Key:
[1] = system: DLD1 (human colorectal tumor cell line); assay: Cytotoxicity assay (trypan blue exclusion, 96 h), DLD1; type: cell-based; details: DLD1, 96 h treatment
[2] = system: H157 (human lung tumor cell line); assay: Cytotoxicity assay (trypan blue exclusion, 96 h), H157; type: cell-based; details: H157, 96 h treatment

Row | Compound | IC50 [1] [µM] | IC50 [2] [µM]
1 | COc1cc(OC)c(/C=C/S(=O)(=O)Cc2ccc(C#N)cc2)c(OC)c1 [6ag, (E)-2,4,6-trimethoxystyryl-4-Cyanobenzyl sulfone] | 20 | 
2 | COc1cc(OC)c(/C=C/S(=O)(=O)Cc2ccc(O)cc2)c(OC)c1 [6ai, (E)-2,4,6-trimethoxystyryl-4-Hydroxybenzyl sulfone] | 20 | 20
3 | COc1ccc(CS(=O)(=O)/C=C/c2ccc(F)c(OC)c2)cc1 [6i, (E)-4-Fluoro-3-methoxystyryl-4-Methoxybenzylsulfone] |  | 20
